This note sets out measurements from article PMC7082753, “Hazards of Using Masking Protocols When Performing Ligand Binding Assays: Lessons From the Sigma-1 and Sigma-2 Receptors” (Frontiers in Pharmacology, 2020).

This data set concerns sigma receptors. Briefly: Saturation binding of pan-sigma ligand [³H] DTG to MDA-MB-468 cell membranes. Further details: species or system human. The note with it: MDA-MB-468 membranes; listed as [³H] DTG. As for the experimental part: Assays (total volume 100 μl) were performed at room temperature for 4 h with 1–300 nM [^3H] […] Assays were terminated by addition of ice-cold TBS and filtration through glass fibre filters (GF/C, Sigma-Aldrich, Poole, UK) using a cell harvester. Tubes and filter discs were washed with ice-cold TBS (2 x 3 ml) and the filter discs dried under vacuum. Scintillation counting was carried out in ProSafe FC+ cocktail after overnight incubation.

“And” between values parts separate entries of the source, which are not always exact repeats. Equal entries are not always repeated.

As to `Cc1ccccc1NC(=N)Nc1ccccc1C` [DTG, 1,3-di-O-tolylguanidine], the Bmax was 850 ± 200 fmol/mg protein and 850 fmol/mg protein.
